Results from patent US20250296971A1, “GASTRIC INHIBITORY PEPTIDE RECEPTOR LIGANDS” (priority 2021, published 2025).
For at least one compound, name, drawing or mass did not settle the structure. Some entries repeat one wording, which the source may state once for all of them. *1 amine or outer side, *2 acyl side, *3 side chain or, on linkers, in order; H or OH if unused. Where a SMILES comes first, the peptide text is derived from it. Bridges are numbered along the chain shown (N, C = ends). [ ]: non-standard residue; d: D form. The star is where a group is joined. DOTA(In) = O=C1CN2CCN3CCN(CC(=O)*)CCN(CC2)CC(=O)[O][In]([O]1)[O]C(=O)C3; Trp(5-Cl) = N[C@@H](Cc1c[nH]c2ccc(Cl)cc12)C(=O)O; X6 = c1cc(CSCCN[*:2])nc(C[*:1])c1; Hyp = O=C(O)[C@@H]1C[C@@H](O)CN1; Suc = O=C(CCC(=O)[*:2])[*:1]; Api = NC1(C(=O)O)CCNCC1

Target: T1, human GIP receptor (bioGIPR) (Homo sapiens, UniProt P48546)
T1 construct: Biotinylate extracellular of the human GIP receptor (bioGIPR, Proteros biostructures GmbH, lot #02/2b); purchased Proteros biostructures GmbH lot #02/2b
T1 sequence (P48546 22-138 limits assumed): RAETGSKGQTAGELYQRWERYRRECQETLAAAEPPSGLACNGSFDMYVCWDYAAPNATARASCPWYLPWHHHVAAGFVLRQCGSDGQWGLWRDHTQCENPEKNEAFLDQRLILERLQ
Assay: Surface plasmon resonance (SPR) based binding assay
Settings: SPR dissociation half-life, Single Cycle Kinetic mode, 25° C.
Description: Surface plasmon resonance (SPR) studies were performed using a Biacore™ T200 SPR system. Briefly, polarized light is directed towards a gold-labeled sensor surface, and minimum intensity reflected light is detected. The angle of reflected light changes as molecules bind and dissociate.
Biotinylate extracellular of the human GIP receptor (bioGIPR, Proteros biostructures GmbH, lot #02/2b) was captured on a biotin capture chip (Biotin CAPture Kit, Series S, GE Healthcare, Cat #28-9202-34). bioGIPR was diluted in Running Buffer (HBST from Xantec Analytics; […], 0.05% Tween20, 0.1% DMSO) to a final concentration 100 nM and than flushed over the Fc-capture chip to immobilized ˜3500 RUs.
Stock solutions of test compounds were prepared by dissolving each compound in DMSO. DMSO stock solution were diluted 1:1000 in Running Buffer without DMSO. Further sequential dilutions were made with Running Buffer containing 0.1% DMSO. […]
For each test compound, SPR raw data in the form of resonance units (RU) were plotted as sensorgrams using the Biacore™ T200 control software. […] The association rate (kon), dissociation rate (koff), dissociation constant (KD), and t1/2 were calculated from blank corrected SPR data using the 1:1 Langmuir binding model from the Biacore™ T200 evaluation software. […] The pKD value (negative decadic logarithm of dissociation constant) was calculated in the IDBS excel template.

CC[C@H](C)[C@@H]1NC(=O)[C@H](CC(C)C)NC(=O)C2(CCN(C(=O)CN3CCN4CCN5CCN(CC3)CC(=O)[O][In]([O]C(=O)C5)[O]C(=O)C4)CC2)NC(=O)[C@@H](NC(=O)[C@@H](CC(C)C)NC(=O)[C@H](CCC(=O)O)NC(=O)[C@@H]2C[C@@H](O)CN2C(=O)[C@H](Cc2c[nH]c3ccc(Cl)cc23)NC(=O)[C@H](Cc2c[nH]c3ccccc23)NC(=O)CCC(=O)O)CSCc2cccc(n2)CSCCNC1=O [GIP-169, HO-Succinyl-Trp-5Clw-Hyp-Glu-leu-[Cys(2Lut)-Apc(InDOTA)-Leu-Ile-AET]] (Suc-W[Trp(5-Cl)][Hyp]E[dL]C[Api](DOTA(In))LI; linker 6-C via X6)
t1/2 Category: A (t1/2 values>15 min)
